# In PubChem BioAssay AID540276 (National Center for Advancing Translational Sciences (NCATS), 2011):
# Out of some 300,000 compounds screened, about 5,400 (1.8%) were called active. Inconclusive means that the source gave no clear call. Such entries were picked first, then a sample of the others. Calls come from the whole dose curve; tested in HEK293 cells. Where the call is inconclusive, the potency comes from a doubtful curve fit.
# Test: qHTS for inhibitors of binding or entry into cells for Marburg Virus
# Conditions: Marburg virus pseudotyped entry inhibition, cell reporter; activity change, negative = inhibition: at 37.8 µM (top of the series) unless noted
# % is set by controls: 0 for no effect and ±100 for the full control effect; potency is the fitted concentration of half-maximal effect.
SMILES,"activity change, negative = inhibition",Potency
COc1ccccc1-c1ccc(SCc2ccccc2F)nn1,inactive: 2.58% [at 46.1 µM],–
CN(C)CCCOc1cccc(Oc2ccccc2)c1,–,"inconclusive: 18.4 µM [inhibitor, single point]"
CC(C)N(c1ccccc1)c1ccc(NC(=S)NCCN(C)C)cc1,–,active: 11.2 µM
COCc1cc(=O)n2[nH]c(-c3ccsc3-n3c(C)ccc3C)cc2n1,inactive: -15.8%,–
COc1cccc(-c2nc(CS(=O)(=O)CC(=O)Nc3ccc(F)cc3F)c(C)o2)c1,inactive: -24.6% [at 46.1 µM],–
CN1C(=O)/C(=C\c2ccc(Br)s2)C(=O)NC1=S,–,"inconclusive: 22.4 µM [inhibitor, partial curve, poor fit]"
CCCCNC(=O)Nc1ccccc1C(=O)Nc1ccc(OC)cc1,–,"inconclusive: 0.141 µM [activator, full curve, poor fit]"
CCC1CCCCN1S(=O)(=O)c1ccc(NC(=O)C2CCCO2)cc1 (centres undefined),inactive: 13%,–
O=[N+]([O-])c1ccc(NC(=S)NCCc2ccccc2)cc1,–,"inconclusive: 18.4 µM [inhibitor, single point]"
CN1CCN(c2nc(-c3ccccc3)c3cc(Cl)ccc3n2)CC1,inactive: -18.9%,–
O=c1[nH]nc(Cc2ccc(Cl)cc2Cl)c2ccccc12,–,"inconclusive: 35.5 µM [inhibitor, single point]"
COc1ccc2c(Cl)c(C(=O)NC3CCS(=O)(=O)C3)sc2c1 (centres undefined),inactive: 19.9%,–
CCN(CC)c1ccc(C2C(C(N)=O)=C(C)Nc3nc(SCc4ccccc4Cl)nn32)cc1 (centres undefined),–,"inconclusive: 35.5 µM [inhibitor, single point]"
Cc1ccc(C(=O)Nc2nc3ccccc3n2CCN2CCCC2)cc1,–,"inconclusive: 3.55 µM [activator, partial curve, poor fit]"
CCOc1ccc(-c2cn3nc(CC(C)C)sc3n2)cc1,–,"inconclusive: 2 µM [activator, partial curve, poor fit]"
O=C(Nc1ccc2c(c1)N(S(=O)(=O)c1cccs1)CCC2)c1c(F)cccc1Cl,–,"inconclusive: 17.8 µM [inhibitor, partial curve, poor fit]"
Cc1cccc(C(C)(C)C)c1OCCCCN1CCCC1,–,"inconclusive: 14.1 µM [inhibitor, single point]"
Cn1cccc1/C=N/NC(=O)c1cc(-c2cccs2)nc2ccccc12,–,"inconclusive: 6.51 µM [inhibitor, single point]"
O=C(/C=C/c1ccc(Cl)cc1)c1cccnc1,–,"inconclusive: 11.2 µM [inhibitor, partial curve, poor fit]"
Cc1cc(Oc2ncccc2[N+](=O)[O-])c2cc(Cl)ccc2n1,–,"inconclusive: 0.562 µM [inhibitor, full curve, poor fit]"
COc1ccc(NC(=O)CN(C)C(=O)c2cc(-c3ccco3)nc3ccccc23)cc1,–,inactive
Cc1cccc(C)c1NC(=O)CN(C)CC(=O)Nc1ccc(C#N)c(Cl)c1,–,"inconclusive: 2.82 µM [inhibitor, partial curve, poor fit]"
Cc1cc(C)cc(N2C(=O)NC(=O)/C(=C\C=C\c3ccco3)C2=O)c1,–,"inconclusive: 20.6 µM [inhibitor, single point]"

# Looked up above:
# Potency with O=C(Nc1ccc2c(c1)N(S(=O)(=O)c1cccs1)CCC2)c1c(F)cccc1Cl reads inconclusive: 17.8 µM [inhibitor, partial curve, poor fit]
# Potency with CCN(CC)c1ccc(C2C(C(N)=O)=C(C)Nc3nc(SCc4ccccc4Cl)nn32)cc1 (centres undefined) reads inconclusive: 35.5 µM [inhibitor, single point]

# Remaining list, next part:

SMILES,"activity change, negative = inhibition",Potency
COc1ccc(Cl)cc1NC(=O)CN(C)CC(=O)Nc1ccc(S(N)(=O)=O)cc1,–,"inconclusive: 11.2 µM [inhibitor, partial curve, poor fit]"
S=C(NCc1ccc(Cl)cc1)Nc1ccccc1,inactive: 3.45% [at 46.1 µM],–
CN(C)S(=O)(=O)c1ccc(C(=O)Nc2nc(-c3cc4ccccc4o3)cs2)cc1,–,"inconclusive: 2.06 µM [inhibitor, full curve]"
COc1cc(-c2nc(-c3ccncc3)no2)cc(OC)c1OC,–,"inconclusive: 29.1 µM [inhibitor, single point]"
CCN(CC)S(=O)(=O)c1cc(NC(=O)[C@@H](NC(N)=O)C(C)C)ccc1C,inactive: 7.23% [at 46.1 µM],–
CCS(=O)(=O)Nc1ccc(C2=NN(S(=O)(=O)c3ccc(F)cc3)C(c3ccco3)C2)cc1 (centres undefined),–,active: 18.3 µM
COc1ccccc1CC(NC(C)=O)C(=O)NC1CCN(C(=O)c2cccc(Cl)c2)CC1 (centres undefined),–,"inconclusive: 11.2 µM [activator, single point]"
O=C(Nc1ccc2c(c1)OCO2)c1ccc(Cl)c(S(=O)(=O)N2CCOCC2)c1,inactive: -23.6%,–
C=CCn1c(SCc2c(C(=O)OC)sc(N)c2C(=O)OC)nnc1-c1ccc(Cl)cc1,–,"inconclusive: 11.2 µM [inhibitor, partial curve, poor fit]"
COc1ccc(C(=O)C2CCCN(Cc3cccn3-c3ccccn3)C2)c(C)c1 (centres undefined),–,"inconclusive: 14.1 µM [inhibitor, partial curve, poor fit]"
O=C(Nc1cccnc1)c1cc2c(ccc3ccccc32)o1,–,"inconclusive: 29.1 µM [inhibitor, single point]"
CCOC(=O)c1c(NC(=O)CN2C(=O)NC3(CCCCC3C)C2=O)sc(C)c1C (centres undefined),–,"inconclusive: 1.84 µM [inhibitor, partial curve, poor fit]"
Oc1cccc(/C=N/Nc2ncnc3c2ncn3Cc2ccccc2)c1,–,"inconclusive: 10 µM [activator, partial curve, poor fit]"
COc1ccc(OC)c(-c2csc(N(Cc3ccco3)C(=O)c3ccco3)n2)c1,–,"inconclusive: 3.98 µM [inhibitor, single point]"
COc1cccc(C(=O)Nc2ccccc2-c2ccccc2)c1,–,"inconclusive: 0.562 µM [inhibitor, partial curve, poor fit]"
COc1cccc(C=Nc2cc(C(C)C)c(O)cc2C)c1O,inactive: 19.4%,–
CCCCN(C)CCCNC(=O)c1cn(CC)c2ccc(S(=O)(=O)N3CCc4ccccc4C3)cc2c1=O,–,active: 5.62 µM
CCc1nnc(NC(=O)CSc2nc3c([nH]c4ccccc43)c(=O)n2CCOC)s1,inactive: 27.6%,–
S=c1nccc(-c2cccs2)[nH]1,–,"inconclusive: 0.794 µM [activator, partial curve, poor fit]"
COc1ccccc1N(C(=O)c1cncc(Br)c1)c1nc(-c2ccc(C)cc2)cs1,inactive: -44.6%,–
CCOc1ccc(OCc2ccc(C(=O)N3CCCCC3)o2)cc1,–,"inconclusive: 35.5 µM [activator, single point]"
CC(C)CCC(C)NC(=O)CN1C(=O)NC(C)(c2ccc3ccccc3c2)C1=O (centres undefined),–,"inconclusive: 35.5 µM [inhibitor, single point]"
O=C1c2cccc(OCC(=O)N3N=C(c4cccs4)CC3c3ccc(F)cc3)c2CCN1Cc1cccnc1 (centres undefined),–,"inconclusive: 11.2 µM [inhibitor, partial curve, poor fit]"

SMILES,"activity change, negative = inhibition",Potency
CC(SCCc1ccccn1)C(=O)O (centres undefined),inactive: 6.36%,–
CCc1ccc(CN2CCN(Cc3ccc(SC)cc3)CC2)cc1,–,"inconclusive: 10 µM [inhibitor, partial curve, poor fit]"
Cc1ccc(C(=O)C2=C(O)C(=O)N(Cc3ccco3)C2c2cccc(Br)c2)o1 (centres undefined),inactive: 1.33%,–
COc1ccc(CCNC(=O)c2ccc(CNS(=O)(=O)c3cccc(Cl)c3)cc2)cc1OC,–,"inconclusive: 11.2 µM [inhibitor, partial curve, poor fit]"
C=CCOc1cccc(/C=C2\C(=O)N(Cc3ccc(C)cc3)C(C)=C2C(=O)OC)c1,–,"inconclusive: 7.94 µM [inhibitor, partial curve, poor fit]"
NNC(=O)c1ccc(Cn2cc(Cl)cn2)cc1,inactive: 10.9%,–
CCCn1c(=N)n(CCOc2ccc(OC)cc2)c2ccccc21,–,"inconclusive: 28.2 µM [inhibitor, single point]"
N/C(=N\OC(=O)c1ccc2c(c1)OCO2)c1cccc(Br)c1,–,"inconclusive: 1.12 µM [activator, full curve, poor fit]"
COc1cc(OC)c(NC(=O)c2cncn2-c2ccc(F)cc2)cc1Cl,–,"inconclusive: 35.5 µM [inhibitor, single point]"
O=C(Nc1ccc(Cl)cc1F)C1CCN(S(=O)(=O)c2cccc3nonc23)CC1,–,"inconclusive: 10 µM [inhibitor, partial curve, poor fit]"
CC(C)(C)c1ccc(C(=O)NN=C2CCCC2)cc1,inactive: -1.05%,–
O=C(N/N=C/c1ccccc1Cl)c1[nH]c2ccc(Br)cc2c1-c1ccccc1,–,active: 2.51 µM
O=C(Nc1nc2ccc([N+](=O)[O-])cc2s1)c1c(F)cccc1F,inactive: -15.7%,–
Cc1[nH]c(=O)[nH]c1C(=O)CCCCC(=O)OCC(=O)Nc1ccccn1,–,"inconclusive: 7.94 µM [activator, partial curve, poor fit]"
Cc1cc(C)c(-n2c(O)c(C=NCCN3CCOCC3)c(=O)[nH]c2=O)c(C)c1,–,"inconclusive: 12.6 µM [activator, single point]"
COc1cc2c(c(OC)c1)[C@H](C=Cc1ccccc1)[C@@H]([C@H](O)CO)OC2,inactive: 17% [at 14.2 µM],–
COc1ccccc1C(=O)Nc1ccc2c(c1)CN(C(=O)CSC)CC2,–,"inconclusive: 3.55 µM [inhibitor, partial curve]"
Cc1sc(NC(=O)CCCC(=O)O)c(C(N)=O)c1-c1ccccc1,–,"inconclusive: 4.47 µM [inhibitor, partial curve]"
O=C(Cn1nnc(-c2ccccc2F)n1)OCC(=O)c1ccccc1,inactive: -16.3% [at 46.1 µM],–
O=C(CCn1c(=O)c2ccccc2n(CC(=O)Nc2ccc(F)cc2)c1=O)NCCc1ccccc1,inactive: -1.3% [at 46.1 µM],–
N#Cc1cccc(NC(=O)Nc2cccs2)c1,–,"inconclusive: 35.5 µM [activator, single point]"
COc1cc(NC(=O)c2nn(C)c3c2COc2ccccc2-3)cc(OC)c1OC,inactive: 6.69% [at 46.1 µM],–
CC(=O)Nc1ccc(-c2cc3ccccc3o2)cc1,–,"inconclusive: 0.398 µM [activator, partial curve, poor fit]"
